Laboratory results: PubChem BioAssay AID743121 (NCATS, 2013)

- Purpose: 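Partners whose loss is lethal together with topoisomerase I blockade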 (primary screen)
- System: MDA-MB-231 cells, a human breast cancer line
- Reagents: single siRNA against human genes, 20 nM siRNA (0.8 pmol per well)
- Duration: 120 h (drug added 48 h after transfection, read 72 h later)
- Challenge: camptothecin 20 nM (about EC30) for 72 h; vehicle 0.1% DMSO in parallel plates
- Measured: 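CellTiter-Glo ATP signal, scaled to control siRNA as percent viability; sensitisation given as log2 of untreated divided by camptothecin-treated viability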
- Scale: log2 vehicle/camptothecin viability: higher = stronger sensitisation to camptothecin; viability with camptothecin and viability without drug: higher = more viable cells
- Active means: 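Each gene scored by redundant siRNA activity (RSA) over its individual siRNA ratios; a gene is called active at p < 0.001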
Here is an unselected part of about 26,000 reagents tested. In the full data, 167 (0.63%) were called active. 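Calls are per gene from RSA p-values that are not deposited; an individual active-marked siRNA can sensitise only weakly.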 Reagents against one gene are numbered here. No sequences are given here.

Gene	siRNA no.	log2 vehicle/camptothecin viability	viability with camptothecin (% of control)	viability without drug (% of control)	Outcome
ASGR1 (asialoglycoprotein receptor 1)	1	-0.49	87.3	62.2	inactive
ASGR1 (asialoglycoprotein receptor 1)	2	-0.201	43.8	38.1	inactive
ASGR1 (asialoglycoprotein receptor 1)	3	0.181	28.2	32	inactive
IQGAP2 (IQ motif containing GTPase activating protein 2)	1	-0.218	70.4	60.5	inactive
IQGAP2 (IQ motif containing GTPase activating protein 2)	2	-0.201	68.5	59.6	inactive
IQGAP2 (IQ motif containing GTPase activating protein 2)	3	0.0277	61.3	62.5	inactive
IQGAP2 (IQ motif containing GTPase activating protein 2)	4	-0.145	82.2	74.3	inactive
PPP1R2 (protein phosphatase 1 regulatory inhibitor subunit 2)	1	-0.219	69.1	59.3	inactive
PPP1R2 (protein phosphatase 1 regulatory inhibitor subunit 2)	2	-0.0711	87.8	83.5	inactive
PPP1R2 (protein phosphatase 1 regulatory inhibitor subunit 2)	3	-0.37	86.3	66.8	inactive
PPP1R2 (protein phosphatase 1 regulatory inhibitor subunit 2)	4	-0.314	109	87.6	inactive
DRD2 (dopamine receptor D2)	1	-0.128	38.6	35.4	inactive
DRD2 (dopamine receptor D2)	2	0.187	31	35.3	inactive
DRD2 (dopamine receptor D2)	3	-0.483	68.2	48.8	inactive
DRD2 (dopamine receptor D2)	4	-0.354	89.9	70.3	inactive
GPX1 (glutathione peroxidase 1)	1	-0.257	44.2	37	inactive
GPX1 (glutathione peroxidase 1)	2	-0.308	56.3	45.5	inactive
GPX1 (glutathione peroxidase 1)	3	-0.179	102	90.3	inactive
CDC20B (cell division cycle 20B)	1	-0.331	68.2	54.2	inactive
CDC20B (cell division cycle 20B)	2	-0.363	72.8	56.6	inactive
CDC20B (cell division cycle 20B)	3	-0.227	105	89.4	inactive
CDC20B (cell division cycle 20B)	4	0.57	48.8	72.5	inactive
PROS1 (protein S)	1	-0.313	92.7	74.6	inactive
PROS1 (protein S)	2	-0.382	72.9	55.9	inactive
PROS1 (protein S)	3	-0.24	131	111	inactive
PROS1 (protein S)	4	-0.0426	89.5	86.9	inactive
CAMK1 (calcium/calmodulin dependent protein kinase I)	1	-0.579	77.7	52	inactive
CAMK1 (calcium/calmodulin dependent protein kinase I)	2	0.224	58.3	68.1	inactive
CAMK1 (calcium/calmodulin dependent protein kinase I)	3	0.0329	95.8	98.1	inactive
CAMK1 (calcium/calmodulin dependent protein kinase I)	4	0.0143	77.5	78.2	inactive
AKAP5 (A-kinase anchoring protein 5)	1	-0.575	111	74.5	inactive
AKAP5 (A-kinase anchoring protein 5)	2	-0.246	79.7	67.2	inactive
AKAP5 (A-kinase anchoring protein 5)	3	0.2	73.5	84.5	inactive
AKAP5 (A-kinase anchoring protein 5)	4	-0.418	91.4	68.4	inactive
CCN2 (cellular communication network factor 2)	1	-0.0705	87.5	83.4	inactive
CCN2 (cellular communication network factor 2)	2	-0.316	79.5	63.9	inactive
CCN2 (cellular communication network factor 2)	3	-0.206	88.3	76.5	inactive
PPP1R1A (protein phosphatase 1 regulatory inhibitor subunit 1A)	1	0.0275	84	85.6	inactive
PPP1R1A (protein phosphatase 1 regulatory inhibitor subunit 1A)	2	0.14	70.7	78	inactive
PPP1R1A (protein phosphatase 1 regulatory inhibitor subunit 1A)	3	-0.212	89.2	77	inactive
PPP1R1A (protein phosphatase 1 regulatory inhibitor subunit 1A)	4	-0.0796	87.5	82.8	inactive
TARS1 (threonyl-tRNA synthetase 1)	1	-0.715	33.5	20.4	inactive
TARS1 (threonyl-tRNA synthetase 1)	2	-0.272	78.2	64.8	inactive
TARS1 (threonyl-tRNA synthetase 1)	3	-0.321	103	82.1	inactive
TARS1 (threonyl-tRNA synthetase 1)	4	-0.322	97	77.6	inactive
EED (embryonic ectoderm development)	1	-0.41	111	83.5	inactive
EED (embryonic ectoderm development)	2	-0.224	49.2	42.1	inactive
EED (embryonic ectoderm development)	3	0.0554	75.2	78.1	inactive
EED (embryonic ectoderm development)	4	-0.0725	78.3	74.4	inactive
RAB3A (RAB3A, member RAS oncogene family)	1	-0.0206	84.1	82.9	inactive
RAB3A (RAB3A, member RAS oncogene family)	2	0.167	58.3	65.4	inactive
RAB3A (RAB3A, member RAS oncogene family)	3	-0.308	87.3	70.5	inactive
SEZ6L2 (seizure related 6 homolog like 2)	1	0.223	42.7	49.9	inactive
SEZ6L2 (seizure related 6 homolog like 2)	2	-0.267	89.9	74.7	inactive
SEZ6L2 (seizure related 6 homolog like 2)	3	-0.0927	82.9	77.7	inactive
OR2L13 (olfactory receptor family 2 subfamily L member 13)	1	0.12	83.5	90.7	inactive
OR2L13 (olfactory receptor family 2 subfamily L member 13)	2	-0.315	117	94.4	inactive
OR2L13 (olfactory receptor family 2 subfamily L member 13)	3	-0.342	99.9	78.8	inactive
OR2L13 (olfactory receptor family 2 subfamily L member 13)	4	0.0622	82.2	85.8	inactive
SLC25A40	1	0.154	55.2	61.4	inactive
SLC25A40	2	-0.0186	102	101	inactive
SLC25A40	3	-0.615	70	45.7	inactive
SLC25A40	4	1.21	15.8	36.7	inactive
SHARPIN (SHANK associated RH domain interactor)	1	-0.00376	79.8	79.5	inactive
SHARPIN (SHANK associated RH domain interactor)	2	-0.485	90	64.3	inactive
SHARPIN (SHANK associated RH domain interactor)	3	0.268	42.5	51.2	inactive
SHARPIN (SHANK associated RH domain interactor)	4	-0.221	81	69.5	inactive
BRD8 (bromodomain containing 8)	1	-0.377	74.5	57.3	inactive
BRD8 (bromodomain containing 8)	2	-0.101	62.6	58.4	inactive
BRD8 (bromodomain containing 8)	3	0.271	79	95.3	inactive
CREB1 (cAMP responsive element binding protein 1)	1	-0.0447	101	98	inactive
CREB1 (cAMP responsive element binding protein 1)	2	-0.421	99.5	74.3	inactive
CREB1 (cAMP responsive element binding protein 1)	3	-0.21	71.1	61.5	inactive
DYRK1B	1	-0.226	109	93.5	inactive
DYRK1B	2	-0.151	23.8	21.5	inactive
DYRK1B	3	0.282	37.3	45.3	inactive
DYRK1B	4	0.735	41.8	69.6	inactive
CYP27C1 (cytochrome P450 family 27 subfamily C member 1)	1	-0.077	107	101	inactive
CYP27C1 (cytochrome P450 family 27 subfamily C member 1)	2	-0.202	97	84.3	inactive
CYP27C1 (cytochrome P450 family 27 subfamily C member 1)	3	-0.0182	80.2	79.1	inactive
CYP27C1 (cytochrome P450 family 27 subfamily C member 1)	4	-0.23	110	93.9	inactive
WNK2 (WNK lysine deficient protein kinase 2)	1	0.538	72.1	105	inactive
WNK2 (WNK lysine deficient protein kinase 2)	2	-0.254	82.9	69.5	inactive
WNK2 (WNK lysine deficient protein kinase 2)	3	-0.0697	117	111	inactive
WNK2 (WNK lysine deficient protein kinase 2)	4	-0.262	80.5	67.2	inactive
CRYGA (crystallin gamma A)	1	-0.128	63.3	57.9	inactive
CRYGA (crystallin gamma A)	2	0.0181	76.6	77.6	inactive
CRYGA (crystallin gamma A)	3	-0.757	72.2	42.7	inactive
CRYGA (crystallin gamma A)	4	-0.256	79.3	66.4	inactive
CRYGA (crystallin gamma A)	5	-0.485	82.5	58.9	inactive

Targets above whose target name begins with B or b (3):
Gene	siRNA no.	log2 vehicle/camptothecin viability	viability with camptothecin (% of control)	viability without drug (% of control)	Outcome
BRD8 (bromodomain containing 8)	1	-0.377	74.5	57.3	inactive
BRD8 (bromodomain containing 8)	2	-0.101	62.6	58.4	inactive
BRD8 (bromodomain containing 8)	3	0.271	79	95.3	inactive
